In the test the target is T1, N-terminally triple-FLAG-tagged cytosolic domain of human Sec12 (residues 1–386) (human) (UniProt Q9HCU5).
T1 sequence: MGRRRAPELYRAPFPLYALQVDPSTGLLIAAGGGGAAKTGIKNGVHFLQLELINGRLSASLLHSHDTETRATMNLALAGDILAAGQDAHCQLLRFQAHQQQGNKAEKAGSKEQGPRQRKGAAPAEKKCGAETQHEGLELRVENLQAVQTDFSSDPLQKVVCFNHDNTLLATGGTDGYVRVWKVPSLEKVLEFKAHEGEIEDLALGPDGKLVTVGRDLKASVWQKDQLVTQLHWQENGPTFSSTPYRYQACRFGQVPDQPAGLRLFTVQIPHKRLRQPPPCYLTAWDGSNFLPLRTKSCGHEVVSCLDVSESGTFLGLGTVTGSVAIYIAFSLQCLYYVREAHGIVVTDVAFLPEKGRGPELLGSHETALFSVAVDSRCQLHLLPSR
Nature of the test: co-IP; HeLa cells co-transfected, lysed 24 h later in 50 mM Tris-HCl pH 7.9, 50 mM NaCl, 0.5% NP-40; IP with anti-FLAG on protein A-agarose overnight at 4°C; washes 20 mM HEPES pH 7.9, 100 mM NaCl, 0.1% NP-40; immunoblot anti-FLAG and anti-GFP. (A western blot detects proteins with antibodies after separation by electrophoresis.)

These are yes or no findings as the source states them, for the method shown. In cells and extracts the contact can be indirect. Binding can be weak; no strength is given. Tags and fused reporters may be left off the sequences shown.

Turning to “monomeric GFP fused to a C-terminal region of human Sec16A (residues 1909–2332) (domain or fragment)”, the binding result is given as “binds weakly”.
